Reference: patent publication US20220177596A1
Numbering of substitutions follows the chain as printed. These are yes or no findings as the source states them, for the method shown. Some binding calls cover weakened binding; strength is not graded here.

B1: BI-mAb-B (antibody, human IgG1, kappa, L234A L235A, V domains shown)
VH: EVQLVESGGGLVKPGGSLRLSCAASGFTFSDYGMHWVRQAPGKGLEWVAYISSGNRIIYYADTVKGRFTISRDNAKNSLYLQMNSLRAEDTAVYYCARQDGYRYAMDYWGQGTLVTVSS
VL: DIVMTQSPDSLAVSLGEKVTINCKSSQSLLNSGNQKNYLTWHQQKPGQPPKLLIYWTSTRESGVPDRFSGSGSGTDFTLTISSLQAEDVAVYYCQNDYTYPLTFGGGTKVEIKR
B2: chimeric Y1238 supernatant (Sup 56; HC-Chim / LC-Chim) (antibody)
VH: QVQLQQSGAELVRPGTSVKVSCKASGYAFTNYLIEWVKQRPGQGLEWIGVINPGSGGTNYNEKFKGKATLTADKSSSTAYMQLSSLTSDDSAVYFCARSQLGRRFDYWGQGTTLTVSS
light: DIVMTQSHKFMSTSVGDRVSITCKASQDVRTGVAWYQQKPGQSPKLLIYSASYRNTGVPDRFTGSRSGTDFTFTISSVQAEDLAVYYCQQHYSPPYTFGGGTKLEIKRTVAAPSVFIFPPSDEQLKSGTASVVCLLNNFYPREAKVQWKVDNALQSGNSQESVTEQDSKDSTYSLSSTLTLSKADYEKHKVYACEVTHQGLSSPVTKSFNRGEC
B3: purified Y1238-chimeric IgG1 antibody (antibody)
VH: B2 VH
light: B2 light
B4: humanized Y1238 hz44 (hz-HC9 / hz-LC4), IgG1.3f (antibody, V domains shown)
VH: QVQLVQSGAEVVKPGASVKVSCKASGYAFTNYLIEWVRQRPGQGLEWMGVINPGSGGTNYNEKFKGRVTLTADKSSSTAYMQLSRLRSDDTAVYFCARSQLGRRFDYWGQGTTVTVSS
VL: DIQMTQSPSSLSASVGDRVTITCKASQDVRTGVAWYQQKPGQSPKLLIYSASYRNTGVPSRFSGSRSGTDFTFTISSLQAEDIAVYYCQQHYSPPYTFGGGTKVEIK
B5: humanized Y1238 hz49 (hz-HC10 / hz-LC4), IgG1.3f (antibody, V domains shown)
VH: B4 VH with V12K, L70M, A72R, S76I, Q82E, F95Y, T113L
VL: B4 VL
B6: humanized Y1238 hz47 (hz-HC10 / hz-LC2), IgG1.3f (antibody, V domains shown)
VH: B4 VH with V12K, L70M, A72R, S76I, Q82E, F95Y, T113L
VL: B4 VL with Q42K, S43A, A80P, V85T
B7: humanized Y1238 hz48 (hz-HC10 / hz-LC3), IgG1.3f (antibody, V domains shown)
VH: B4 VH with V12K, L70M, A72R, S76I, Q82E, F95Y, T113L
VL: B4 VL with A80P
B8: humanized Y1238 hz55 (hz-HC11 / hz-LC5), IgG1.3f (antibody, V domains shown)
VH: B4 VH with V12K, L70M, A72R, Q82E, T113L
VL: B4 VL with S43A, A80P
B9: humanized Y1238 hz51 (hz-HC11 / hz-LC1), IgG1.3f (antibody, V domains shown)
VH: B4 VH with V12K, L70M, A72R, Q82E, T113L
VL: B4 VL with Q42K, S43A, R66G, A80P, V85T
B10: humanized Y1238 hz54 (hz-HC11 / hz-LC4), IgG1.3f (antibody, V domains shown)
VH: B4 VH with V12K, L70M, A72R, Q82E, T113L
VL: B4 VL
B11: humanized Y1238 hz45 (hz-HC9 / hz-LC5), IgG1.3f (antibody, V domains shown)
VH: B4 VH
VL: B4 VL with S43A, A80P
B12: humanized Y1238 hz46 (hz-HC10 / hz-LC1), IgG1.3f (antibody, V domains shown)
VH: B4 VH with V12K, L70M, A72R, S76I, Q82E, F95Y, T113L
VL: B4 VL with Q42K, S43A, R66G, A80P, V85T
B13: humanized Y1238 hz50 (hz-HC10 / hz-LC5), IgG1.3f (antibody, V domains shown)
VH: B4 VH with V12K, L70M, A72R, S76I, Q82E, F95Y, T113L
VL: B4 VL with S43A, A80P
B14: humanized Y1238 hz53 (hz-HC11 / hz-LC3), IgG1.3f (antibody, V domains shown)
VH: B4 VH with V12K, L70M, A72R, Q82E, T113L
VL: B4 VL with A80P
B15: humanized Y1238 hz52 (hz-HC11 / hz-LC2), IgG1.3f (antibody, V domains shown)
VH: B4 VH with V12K, L70M, A72R, Q82E, T113L
VL: B4 VL with Q42K, S43A, A80P, V85T

The binders below were run against human-CD40 monomer (human) (UniProt P25942) (assay: SPR).

| Binder | binding |
| --- | --- |
| B1 | binds |

The binders below were run against human-CD40 monomer (human) (UniProt P25942) (assay: SPR 2 pt screen).

| Binder | binding |
| --- | --- |
| B2 | binds |
| B3 | binds |
| B4 | binds |
| B5 | binds |
| B6 | binds |
| B7 | binds |
| B8 | binds |
| B9 | binds |
| B10 | binds |
| B11 | binds |
| B12 | binds |
| B13 | binds |
| B14 | binds |
| B15 | binds |
